Data on two substances can be found in publication PMC5946489, “Inactivation of the tight junction gene CLDN11 by aberrant hypermethylation modulates tubulins polymerization and promotes cell migration in nasopharyngeal carcinoma”.

Chains of the proteins cited; added tags and fusions are not shown.
UniProt P68363: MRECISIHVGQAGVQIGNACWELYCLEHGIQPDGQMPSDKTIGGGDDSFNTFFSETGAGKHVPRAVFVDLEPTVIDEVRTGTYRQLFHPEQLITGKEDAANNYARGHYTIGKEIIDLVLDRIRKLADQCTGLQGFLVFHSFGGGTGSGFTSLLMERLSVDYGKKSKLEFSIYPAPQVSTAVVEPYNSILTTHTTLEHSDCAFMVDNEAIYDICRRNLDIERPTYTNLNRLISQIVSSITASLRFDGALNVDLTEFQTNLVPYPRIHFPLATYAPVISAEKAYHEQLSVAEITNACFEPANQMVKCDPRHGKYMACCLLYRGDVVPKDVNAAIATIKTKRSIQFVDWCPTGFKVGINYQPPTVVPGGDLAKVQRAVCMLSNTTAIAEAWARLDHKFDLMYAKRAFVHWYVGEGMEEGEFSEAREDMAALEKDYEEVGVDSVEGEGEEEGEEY
UniProt Q13509: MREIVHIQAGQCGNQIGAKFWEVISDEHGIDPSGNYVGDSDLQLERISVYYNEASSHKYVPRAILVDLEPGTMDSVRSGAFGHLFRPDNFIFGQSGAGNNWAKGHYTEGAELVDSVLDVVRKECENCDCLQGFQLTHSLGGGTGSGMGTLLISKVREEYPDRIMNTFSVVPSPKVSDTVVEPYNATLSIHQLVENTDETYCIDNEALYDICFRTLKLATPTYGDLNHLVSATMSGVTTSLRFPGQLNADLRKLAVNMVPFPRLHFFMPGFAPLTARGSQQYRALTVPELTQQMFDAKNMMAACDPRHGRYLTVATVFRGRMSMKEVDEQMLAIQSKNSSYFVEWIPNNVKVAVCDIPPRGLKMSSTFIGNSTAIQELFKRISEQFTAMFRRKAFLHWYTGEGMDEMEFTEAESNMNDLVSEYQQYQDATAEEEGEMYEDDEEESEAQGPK

No constants are given. Whether binding was seen depends on the method and setting. Binding seen in cells or lysates may run through a third protein. Some binding calls cover weakened binding; strength is not graded here. Tags and fused reporters may be left off the sequences shown.

For this assay, the target named is T1, FLAG-tagged CLDN11-3F (claudin 11) (human) (UniProt O75508).
T1 sequence: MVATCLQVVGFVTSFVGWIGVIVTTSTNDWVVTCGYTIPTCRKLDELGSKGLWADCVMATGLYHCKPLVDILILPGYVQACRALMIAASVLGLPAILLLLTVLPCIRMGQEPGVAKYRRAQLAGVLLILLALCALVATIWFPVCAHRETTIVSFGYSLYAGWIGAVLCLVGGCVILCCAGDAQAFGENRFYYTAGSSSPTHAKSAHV
Nature of the assay: co-IP; FLAG-tagged CLDN11-3F or vector control transiently overexpressed in NPC cells; precipitated with Flag M2 beads; endogenous TUBA1B and TUBB3 detected by immunoblot. For orientation: In western blotting, separated proteins are transferred to a membrane and probed.

“tubulin alpha-1B (TUBA1B) (from UniProt P68363 1-451)”: the binding result is on record as “binds”. With “tubulin beta-3 (TUBB3) (from UniProt Q13509 1-450)”, the binding entry is “binds”.
